Results as given in publication PMC4941734, “Structural and dynamics studies of a truncated variant of CI repressor from bacteriophage TP901-1” (Scientific Reports, 2016).
These are yes or no findings as the source states them, for the method shown.

B1: CI∆78, truncated CI repressor from bacteriophage TP901-1 (first 102 residues of CI) (domain or fragment, UniProt O48503 1-102)
chain: MKTDTSNRLKQIMAERNLKQVDILNLSIPFQKKFGIKLSKSTLSQYVNSVQSPDQNRIYLLAKTLGVSEAWLMGFDVPMVESSKIENDSENIEETITVMKKL
B2: CI-NTD, N-terminal helix-turn-helix DNA-binding domain of CI repressor from bacteriophage TP901-1 (74 residues of CI) (domain or fragment, UniProt O48503 1-74)
chain: MKTDTSNRLKQIMAERNLKQVDILNLSIPFQKKFGIKLSKSTLSQYVNSVQSPDQNRIYLLAKTLGVSEAWLMG

How the values were obtained:
[1] = target: CI∆78, truncated CI repressor from bacteriophage TP901-1 (first 102 residues of CI) (bacteriophage TP901-1) (UniProt O48503); test: SEC; HiLoad 26/60 Superdex 75; native molecular weight estimated by comparison with globular protein standards; both purified
[2] = target: CI-NTD, N-terminal helix-turn-helix DNA-binding domain of CI repressor from bacteriophage TP901-1 (74 residues of CI) (bacteriophage TP901-1) (UniProt O48503); test: native MS; CI-NTD 2.2 μM with OL dsDNA 1.3 μM in 250 mM ammonium acetate, pH 6.8; both purified

Binder	binding [1]	binding [2]
B1	no binding	–
B2	–	no binding (tested: 2.2 μM)
